Source: ChEMBL document CHEMBL3988442, “University of Dundee, Small-Polar-MMV Screening Library” (2021).

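Whole-cell assay for inhibitors of Mycobacterium tuberculosis growth, labelled Cornell in the record; the read-out is not stated. The concentration is filed as 10 mM, unlikely as a test dose, so the dose is not known. The record gives no direction; compounds strong in two other growth screens of this library score well above the rest, so higher reads as stronger inhibition. Size under these conditions: about 53,000 compounds, about 900 of them at 50% or above in at least one test.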

Results are given as percent effect. The record does not define 0% and 100%; most values in the screen are far below 50% and negative numbers occur (in some assays of this library far below -100). This is an unselected part of the compounds tested.

Result for O=S(=O)(c1ccccc1)N1CCC2(CCCN2Cc2ccccc2Cl)C1 (stereo not given) was -1.83%. Cc1ccc2c(c1)CN(C(=O)C1CCCCC1)C(CN(C)C)CO2.Cl (stereo not given) read 26.21%. With CCn1nc(C)c(C(=O)N2CCC(Nc3ccc(C)nn3)CC2)c1C the screen gave 11.73%. With COc1ccc(-c2nnc([C@H]3CCN(C4CCC4)C3)o2)cc1 the screen gave 1.857%. COCCNc1ccc(CC2CCCN(Cc3c[nH]cn3)C2)nn1 (stereo not given) read -7.94%.

For Cc1nc(C)n(CC2CN(Cc3cccs3)Cc3nccn3C2)n1.O=C(O)C(F)(F)F (stereo not given) the result was -2.579%. Result for Cc1nc(NCc2ccc(C)o2)cc(C2CCNCC2)n1 was -17.21%. CCc1noc(C(C)N2CCc3c(ncn3C3CC3)C2)n1 (stereo not given) read -20.08%. With CC(C)N1CCc2ncn(C(C)C)c2C1C(=O)NCCN1CCCC1 (stereo not given) the screen gave 33.05%. For Cc1cc2cc(NC(=O)Cn3ncc(N4CCCC4)cc3=O)ccc2o1 the result was -33.22%.

Result for Cc1cnc(C(=O)N2CCCC(n3cncn3)C2)cn1 (stereo not given) was -37.83%. Result for Cc1nn(C)c(C)c1C1CCCN1C(=O)c1ccc2c(c1)OCCO2 (stereo not given) was -26.14%. N#Cc1ccc(CNc2cnn(CCN3CCOCC3)c2)cc1 read -30.33%. With [H][C@]12CCN(Cc3ccc(C)o3)C[C@@]1([H])OCCN(S(C)(=O)=O)C2 the screen gave -6.117%. CCS(=O)(=O)N1CCn2c(COCC3CCOCC3)cnc2C1C (stereo not given) read 19.89%.

Cc1cc(C)cc(NC(=O)N(CCC#N)CCCN(C)C)c1 gave -31.84%. Cc1ccccc1CN1C[C@@H](CN(C)CCO)[C@@H](CO)C1 gave 15.91%. Result for CCOc1cc(CN(C)CC(C)(C)O)ccc1OC(F)F was -12.47%. Result for CCC(Nc1nc(C(F)(F)F)nc2ccccc12)C(=O)O (stereo not given) was 9.761%. Result for CCCS(=O)(=O)NCc1cccnc1OCC was -67.03%.

c1coc(CN2CCn3c(nc4ccccc43)C2)c1 read -21.87%. Cn1ccc2c(C(=O)NCCCN3CCCC3)cccc21 gave -26.27%. Result for COc1ncnc2c1CCN(Cc1cccc(C)n1)CC2 was 23.75%. With [H][C@@]12CN(Cc3ccc(Cl)cc3)C[C@]1([H])OCC(=O)N2CC(N)=O the screen gave -21.01%. Result for COc1ccccc1OCC(=O)NCc1ncc(C)c(OC)c1C was 28.25%.

For O=C(c1ccc(C2CCCN2)s1)N1CCN2CCC1CC2 (stereo not given) the result was 7.877%. CCc1ccc(CNC(=O)NC2CCCc3c2cnn3CCO)s1 (stereo not given) read -18.44%. CC(C)CC(=O)N(C)Cc1nc(C(F)(F)F)cs1 read 1.918%. CCC[C@H]1CN(Cc2cncn2C)C[C@@H]1NC(=O)C1(COC)CCC1 gave 8.736%. CC(NC(=O)c1cc(N2CCNC2=O)ccc1F)c1ccc(F)cc1 (stereo not given) gave 13.29%.

For O=C(NCc1ccon1)c1c(F)cc(Br)cc1F the result was 23.11%. For OCC(O)CSCc1nnc(-c2ccc(Cl)cc2)o1 (stereo not given) the result was 15.54%. For Cc1cc(N2CCCC2)nc(CNS(=O)(=O)Cc2ccccc2)n1 the result was 5.437%. For COCc1cc(C[C@@H]2CC[C@H](O)[C@@H](CN(CC(C)C)CC(C)C)O2)no1 the result was -5.271%. For COc1cccc([C@H]2CN(C(=O)c3cc(C)on3)C[C@@H]2N)c1 the result was 1.49%.

CC(C)=CCS(=O)(=O)Cc1nc(C(C)C)no1 gave 11.55%. O=C(NCc1cccs1)C1CNCC12CCOCC2.O=C(O)C(F)(F)F (stereo not given) read 15.03%. Result for Cc1ccc(-c2noc(C3CCN3C(=O)c3cc[nH]n3)n2)s1 (stereo not given) was 52.32%. With c1cc(-c2c[nH]c([C@@H]3COCCN3Cc3ncc[nH]3)n2)ccn1 the screen gave 5.133%. For N#CCc1ccc(NC(=O)Cn2cc(I)cn2)cc1 the result was 4.552%.

CN1CC[C@]2(CN(CC3CC3)C[C@H]2c2ccccc2)C1=O gave -29.63%. O=c1ccn([C@H]2CCN(Cc3ncc[nH]3)CC[C@@H]2O)c(=O)[nH]1 gave -57.93%. With Cc1cccc(NC(=O)[C@@H]2CCCN2Cc2cnc3ccccn23)n1 the screen gave -25.14%. With Cc1noc(COCC(=O)N2CCCC(c3nccs3)C2)n1 (stereo not given) the screen gave -15.34%. CCN1CCCC(C)(C(=O)NCCc2nnc(C)[nH]2)C1 (stereo not given) gave 8.261%.

For CNC(=O)C1(c2cnccn2)CCCN1C(=O)Cc1ccsc1 (stereo not given) the result was 5.503%. With CN(C)S(=O)(=O)N1CCN(C(=O)OC(C)(C)C)CC12CCCCC2 the screen gave 12.43%. Cn1cc(C[C@H]2[C@H](O)CCN2CC2CC2)cn1.O=C(O)C(F)(F)F read 14.92%. CNC(=O)C1CCC2(CCN(c3nncs3)CC2)CO1.O=C(O)C(F)(F)F (stereo not given) read -25.24%. [H][C@]12CCN(C(=O)C3CC=CC3)[C@@]1([H])CC[C@H](COCC1CCOCC1)O2 gave 16.8%.

Cc1csc(CCCNC(=O)[C@H]2CNC[C@@H](C(=O)N3CCCC3)C2)n1 gave 41.96%. With COc1ccc(C2SC(C)=Nc3c2c(=O)[nH]n3C2CCCC2)cc1O (stereo not given) the screen gave 33.13%. Result for CCc1nccn1C1CCCN(C(=O)c2ccn(-c3ccccc3)n2)C1 (stereo not given) was 26.67%. [H][C@@]12CN(C(=O)c3cc(C)on3)C[C@@]1([H])N(CC1CC1)C(=O)CO2 gave 5.315%. For CCOc1nc2cnccc2n(CC(=O)Nc2ccccc2OC)c1=O the result was 10.78%.

Cn1cccc1C(=O)N1CCC(c2nnc(Cn3ccnc3)n2C)CC1 gave 12.14%. For Cc1n[nH]c(C)c1CCC(=O)N1CCC(O)(CN2CCOCC2)C1 (stereo not given) the result was -37.41%. For COCC1CC2(CCN(Cc3ccccn3)CC2)CN1C(C)C (stereo not given) the result was 11.77%. With CCC(=O)N1CCN(c2cc(-n3cnc(C)c3C)nc(C)n2)CC1 the screen gave -7.479%.

The first 6 entries again:

O=S(=O)(c1ccccc1)N1CCC2(CCCN2Cc2ccccc2Cl)C1 (stereo not given) read -1.83%.
Cc1ccc2c(c1)CN(C(=O)C1CCCCC1)C(CN(C)C)CO2.Cl (stereo not given) read 26.21%.
CCn1nc(C)c(C(=O)N2CCC(Nc3ccc(C)nn3)CC2)c1C read 11.73%.
COc1ccc(-c2nnc([C@H]3CCN(C4CCC4)C3)o2)cc1 read 1.857%.
COCCNc1ccc(CC2CCCN(Cc3c[nH]cn3)C2)nn1 (stereo not given) read -7.94%.
Cc1nc(C)n(CC2CN(Cc3cccs3)Cc3nccn3C2)n1.O=C(O)C(F)(F)F (stereo not given) read -2.579%.